Experimental data as given in PubChem BioAssay AID248 (DTP/NCI, 2004).
The list does not hold the whole screen: it is rich in T/C values a quarter to a half above the control, in often repeated tests (any T/C) and in doses without a T/C. Further doses and runs are listed elsewhere. T/C: endpoint of the treated group in % of that of the vehicle group. Some entries give survivors of the animals treated and no T/C: the source files T/C as zero there, which appears to mark a toxic dose or a test without result, not a measured value. Some doses without a T/C left all or most animals alive at the check, yet need not have been tolerated: the source hardly ever lists a survival T/C far under the control, and the zero likely stands for such cases as well. Counts of survivors are from the toxicity check (mostly the fifth day) where no day follows; animals may have died later. Schedules are NCI's codes, taken here to give the interval after Q, in days (D) or hours (H), and the number of doses after X. Some schedule codes hold Z or #, which are not explained here. Where survival is the endpoint, the PubChem record calls one and a half times the control and up active, and a quarter to a half above the control has no call in these data; cut-offs in other NCI protocols can differ. Some T/C values carry the count of animals alive at the toxicity check (mostly the fifth day); without a count, all were alive then. Some entries hold several experiments; their values stand side by side, smallest first. Counts like (3×) stand for listed records that agree.

System: L1210 leukemia ip in BDF1 mice, survival T/C
Test: NCI In Vivo Anticancer Drug Screen. Data for tumor model L1210 Leukemia (intraperitoneal) in B6D2F1 (BDF1) mice
Conditions: higher T/C = longer survival; for T/C: schedule: Q02DX010 (ip)

In the case of `CS(=O)(=O)OCCCCOS(C)(=O)=O`, the T/C (T/C endpoint: mean survival time, dose: 14.2 mg/kg/injection, vehicle: carboxymethylcellulose (CMC)) is reported as 93, 95, 115 (2×), 133 % of control, the T/C (T/C endpoint: mean survival time, dose: 22.1 mg/kg/injection, vehicle: carboxymethylcellulose (CMC)) is reported as 96, 102, 103, 106, 110 % of control and the survivor count (T/C endpoint: mean survival time, dose: 25.0 mg/kg/injection, schedule: Q01DX010 (ip), vehicle: saline) is reported as 6 of 6. The T/C (T/C endpoint: mean survival time, dose: 33.0 mg/kg/injection, vehicle: carboxymethylcellulose (CMC)) was 96, 101, 102 (2×), 103, 107 % of control (2×), the T/C (T/C endpoint: mean survival time, dose: 49.5 mg/kg/injection, vehicle: carboxymethylcellulose (CMC)) was 76, 105, 106, 109 % of control (2×) and the survivor count (T/C endpoint: mean survival time, dose: 50.0 mg/kg/injection, schedule: Q01DX Z (ip), vehicle: carboxymethylcellulose (CMC)) was 0 of 6. The T/C (T/C endpoint: mean survival time, dose: 74.25 mg/kg/injection, vehicle: carboxymethylcellulose (CMC)) was 76, 77 [4 of 5 alive], 85, 102, 117 % of control, the survivor count (T/C endpoint: mean survival time, dose: 80.0 mg/kg/injection, schedule: Q01DX Z (ip), vehicle: carboxymethylcellulose (CMC)) was 6 of 10 and the survivor count (T/C endpoint: mean survival time, dose: 240.0 mg/kg/injection, schedule: Q01DX001 (ip), vehicle: carboxymethylcellulose (CMC)) was 1 of 6. For the same compound, the survivor count (T/C endpoint: mean survival time, dose: 320.0 mg/kg/injection, schedule: Q01DX Z (oral), vehicle: saline) was 1 of 6, the survivor count (T/C endpoint: mean survival time, dose: 480.0 mg/kg/injection, schedule: Q01DX001 (ip), vehicle: carboxymethylcellulose (CMC)) was 0 of 6 and the survivor count (T/C endpoint: mean survival time, dose: 640.0 mg/kg/injection, schedule: Q01DX Z (oral), vehicle: saline) was 0 of 6. For the same compound, the survivor count (T/C endpoint: median survival time, dose: 100.0 mg/kg/injection, schedule: Q01DX009 (ip), vehicle: saline) was 4 of 6.
For `COc1ccccc1OCCOCCNC1C(C)CCCC1(C)C` (stereo not given), the survivor count (T/C endpoint: mean survival time, dose: 200.0 mg/kg/injection, schedule: Q04DX003 (ip), vehicle: Klucel (hydroxypropylcellulose) (HPC)) was 2 of 6 and the survivor count (T/C endpoint: mean survival time, dose: 400.0 mg/kg/injection, schedule: Q04DX003 (ip), vehicle: Klucel (hydroxypropylcellulose) (HPC)) was 2 of 6.
For `COc1ccc2nc3ccccc3c(N)c2c1`, the survivor count (T/C endpoint: mean survival time, dose: 80.0 mg/kg/injection, schedule: Q01DX001 (ip), vehicle: saline) was 0 of 6.
With `CCC(C)c1ccc(O)c(CN(CCO)CCO)c1` (stereo not given) the survivor count (T/C endpoint: mean survival time, dose: 400.0 mg/kg/injection, schedule: Q01DX001 (ip), vehicle: saline) was 0 of 6.
With `NNC(=O)CCC(N)C(=O)O` (stereo not given) the survivor count (T/C endpoint: mean survival time, dose: 129.15 mg/kg/injection, schedule: Q01DX Z (ip), vehicle: carboxymethylcellulose (CMC)) was 10 of 10, the survivor count (T/C endpoint: mean survival time, dose: 172.2 mg/kg/injection, schedule: Q01DX Z (ip), vehicle: carboxymethylcellulose (CMC)) was 9 of 10 and the survivor count (T/C endpoint: mean survival time, dose: 215.25 mg/kg/injection, schedule: Q01DX Z (ip), vehicle: carboxymethylcellulose (CMC)) was 7 of 10.
